Experimental findings from the supplement of paper PMC10849652 are described below.

The chains behind the UniProt entries cited, without tags or fusion partners. Where a name states a change or a piece, a line headed by the entry shows the natural chain unless it says otherwise.
UniProt P31943: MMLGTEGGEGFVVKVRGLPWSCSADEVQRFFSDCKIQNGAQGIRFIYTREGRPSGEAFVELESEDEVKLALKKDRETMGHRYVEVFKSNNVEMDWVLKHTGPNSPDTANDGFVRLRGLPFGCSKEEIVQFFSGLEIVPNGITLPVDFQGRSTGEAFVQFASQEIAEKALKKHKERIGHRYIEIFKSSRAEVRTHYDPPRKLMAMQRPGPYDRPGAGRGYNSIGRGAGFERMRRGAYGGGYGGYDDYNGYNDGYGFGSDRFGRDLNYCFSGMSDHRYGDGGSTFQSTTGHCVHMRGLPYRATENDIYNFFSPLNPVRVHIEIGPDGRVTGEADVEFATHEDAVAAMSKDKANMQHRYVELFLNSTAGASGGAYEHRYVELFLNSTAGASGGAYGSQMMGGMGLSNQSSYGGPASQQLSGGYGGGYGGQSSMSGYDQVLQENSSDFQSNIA
UniProt P49773: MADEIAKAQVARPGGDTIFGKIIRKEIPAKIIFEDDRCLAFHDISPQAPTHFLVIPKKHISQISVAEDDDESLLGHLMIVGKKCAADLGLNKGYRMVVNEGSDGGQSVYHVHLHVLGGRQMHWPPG
UniProt Q9NZL4: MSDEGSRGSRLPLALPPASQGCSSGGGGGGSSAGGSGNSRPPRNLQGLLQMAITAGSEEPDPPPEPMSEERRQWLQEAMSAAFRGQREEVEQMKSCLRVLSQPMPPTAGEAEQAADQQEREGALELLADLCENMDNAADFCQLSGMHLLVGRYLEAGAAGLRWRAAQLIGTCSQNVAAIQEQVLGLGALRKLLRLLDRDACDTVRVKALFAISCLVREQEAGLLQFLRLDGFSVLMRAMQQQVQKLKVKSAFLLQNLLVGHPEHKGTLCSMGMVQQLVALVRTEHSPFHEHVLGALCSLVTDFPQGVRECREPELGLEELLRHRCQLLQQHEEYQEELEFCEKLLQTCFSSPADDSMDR
UniProt Q9Y4L1: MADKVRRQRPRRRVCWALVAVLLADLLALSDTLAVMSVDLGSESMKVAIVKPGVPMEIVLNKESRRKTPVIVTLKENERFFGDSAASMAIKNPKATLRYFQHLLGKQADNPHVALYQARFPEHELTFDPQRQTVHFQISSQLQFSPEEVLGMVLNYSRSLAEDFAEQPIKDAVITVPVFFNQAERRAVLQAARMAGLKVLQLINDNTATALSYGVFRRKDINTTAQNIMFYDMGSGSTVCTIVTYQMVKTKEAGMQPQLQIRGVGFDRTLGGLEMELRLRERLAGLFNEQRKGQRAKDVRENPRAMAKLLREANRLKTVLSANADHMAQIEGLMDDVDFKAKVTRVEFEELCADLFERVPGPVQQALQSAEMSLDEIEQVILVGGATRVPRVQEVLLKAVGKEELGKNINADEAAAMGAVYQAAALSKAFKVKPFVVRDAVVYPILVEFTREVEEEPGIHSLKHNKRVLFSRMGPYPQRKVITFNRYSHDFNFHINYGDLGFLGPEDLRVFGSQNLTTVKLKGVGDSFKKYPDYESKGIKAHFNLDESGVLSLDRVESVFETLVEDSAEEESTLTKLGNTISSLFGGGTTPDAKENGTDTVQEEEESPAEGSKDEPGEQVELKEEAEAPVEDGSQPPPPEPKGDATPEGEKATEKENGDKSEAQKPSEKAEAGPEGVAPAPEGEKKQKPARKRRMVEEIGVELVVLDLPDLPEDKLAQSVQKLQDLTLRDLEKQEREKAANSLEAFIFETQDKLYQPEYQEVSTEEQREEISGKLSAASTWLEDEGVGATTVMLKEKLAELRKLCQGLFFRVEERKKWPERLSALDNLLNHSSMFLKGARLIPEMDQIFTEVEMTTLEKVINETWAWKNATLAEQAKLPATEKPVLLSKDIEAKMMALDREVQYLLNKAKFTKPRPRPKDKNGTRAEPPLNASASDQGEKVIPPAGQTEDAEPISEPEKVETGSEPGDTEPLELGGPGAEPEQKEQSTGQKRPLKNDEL
UniProt P0DMV8, whole entry, looked up: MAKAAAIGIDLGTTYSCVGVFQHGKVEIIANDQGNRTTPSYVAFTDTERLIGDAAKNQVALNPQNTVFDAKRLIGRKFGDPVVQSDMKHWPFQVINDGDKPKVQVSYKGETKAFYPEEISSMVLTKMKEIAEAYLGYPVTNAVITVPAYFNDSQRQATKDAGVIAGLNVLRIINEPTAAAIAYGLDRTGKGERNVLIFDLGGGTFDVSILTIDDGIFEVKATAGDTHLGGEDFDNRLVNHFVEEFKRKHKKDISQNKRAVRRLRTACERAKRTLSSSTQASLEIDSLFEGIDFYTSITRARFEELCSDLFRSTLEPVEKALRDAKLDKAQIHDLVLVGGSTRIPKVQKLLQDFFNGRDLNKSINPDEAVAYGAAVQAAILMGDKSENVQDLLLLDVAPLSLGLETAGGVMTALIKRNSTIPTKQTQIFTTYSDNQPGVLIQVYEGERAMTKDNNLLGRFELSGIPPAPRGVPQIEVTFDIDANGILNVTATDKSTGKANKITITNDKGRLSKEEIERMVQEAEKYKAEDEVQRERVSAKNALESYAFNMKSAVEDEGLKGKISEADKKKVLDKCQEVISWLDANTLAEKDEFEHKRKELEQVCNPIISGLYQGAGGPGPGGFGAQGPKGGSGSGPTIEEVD
UniProt P08238, whole entry, looked up: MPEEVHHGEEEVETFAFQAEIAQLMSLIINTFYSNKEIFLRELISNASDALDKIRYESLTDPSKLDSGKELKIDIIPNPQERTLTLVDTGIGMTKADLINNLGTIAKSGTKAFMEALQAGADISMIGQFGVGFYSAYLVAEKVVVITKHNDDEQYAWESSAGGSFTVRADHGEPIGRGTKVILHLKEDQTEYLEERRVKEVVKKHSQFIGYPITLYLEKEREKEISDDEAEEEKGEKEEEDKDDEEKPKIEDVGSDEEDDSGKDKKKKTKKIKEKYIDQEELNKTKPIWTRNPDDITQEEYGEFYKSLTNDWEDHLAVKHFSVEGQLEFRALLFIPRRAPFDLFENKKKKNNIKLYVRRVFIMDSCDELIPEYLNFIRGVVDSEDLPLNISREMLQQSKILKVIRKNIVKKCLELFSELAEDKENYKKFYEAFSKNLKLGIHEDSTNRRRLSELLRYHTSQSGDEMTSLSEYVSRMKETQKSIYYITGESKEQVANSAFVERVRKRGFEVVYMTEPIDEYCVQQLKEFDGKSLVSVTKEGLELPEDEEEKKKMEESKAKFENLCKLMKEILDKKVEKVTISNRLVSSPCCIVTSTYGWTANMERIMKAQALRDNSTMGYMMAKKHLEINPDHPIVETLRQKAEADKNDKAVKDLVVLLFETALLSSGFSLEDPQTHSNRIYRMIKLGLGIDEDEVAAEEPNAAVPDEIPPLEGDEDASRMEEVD
UniProt Q9Y547: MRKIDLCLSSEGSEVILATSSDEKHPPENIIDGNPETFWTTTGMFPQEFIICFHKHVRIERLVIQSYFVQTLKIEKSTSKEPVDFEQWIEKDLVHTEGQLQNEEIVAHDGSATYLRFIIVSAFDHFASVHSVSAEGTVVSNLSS
UniProt P09429: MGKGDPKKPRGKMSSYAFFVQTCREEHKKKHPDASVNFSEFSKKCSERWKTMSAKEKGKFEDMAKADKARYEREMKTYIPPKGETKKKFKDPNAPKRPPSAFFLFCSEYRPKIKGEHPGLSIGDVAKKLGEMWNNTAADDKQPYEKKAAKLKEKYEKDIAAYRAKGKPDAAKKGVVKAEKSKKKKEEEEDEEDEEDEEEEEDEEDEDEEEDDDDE
UniProt P05114: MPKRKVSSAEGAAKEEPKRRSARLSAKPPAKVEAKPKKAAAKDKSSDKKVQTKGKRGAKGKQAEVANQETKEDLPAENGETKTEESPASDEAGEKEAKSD
UniProt O43719: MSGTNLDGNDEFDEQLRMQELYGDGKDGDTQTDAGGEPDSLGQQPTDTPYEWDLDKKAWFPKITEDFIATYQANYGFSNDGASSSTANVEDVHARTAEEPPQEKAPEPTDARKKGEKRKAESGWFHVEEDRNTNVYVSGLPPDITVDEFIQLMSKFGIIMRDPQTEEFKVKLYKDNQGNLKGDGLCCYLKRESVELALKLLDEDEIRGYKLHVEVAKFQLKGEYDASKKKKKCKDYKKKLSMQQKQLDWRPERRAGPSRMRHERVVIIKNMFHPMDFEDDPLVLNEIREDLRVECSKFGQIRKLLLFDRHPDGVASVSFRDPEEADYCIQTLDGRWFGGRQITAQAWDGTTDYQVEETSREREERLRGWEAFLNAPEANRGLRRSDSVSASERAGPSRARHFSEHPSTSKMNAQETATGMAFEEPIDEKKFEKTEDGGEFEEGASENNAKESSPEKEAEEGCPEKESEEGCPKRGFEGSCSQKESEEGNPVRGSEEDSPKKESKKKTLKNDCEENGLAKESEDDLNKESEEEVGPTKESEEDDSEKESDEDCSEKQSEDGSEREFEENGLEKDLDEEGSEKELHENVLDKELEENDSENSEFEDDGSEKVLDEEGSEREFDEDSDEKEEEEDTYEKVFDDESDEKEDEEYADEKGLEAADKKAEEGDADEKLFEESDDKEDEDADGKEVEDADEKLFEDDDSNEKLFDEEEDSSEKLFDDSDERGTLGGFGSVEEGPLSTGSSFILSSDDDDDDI
UniProt Q5SSJ5: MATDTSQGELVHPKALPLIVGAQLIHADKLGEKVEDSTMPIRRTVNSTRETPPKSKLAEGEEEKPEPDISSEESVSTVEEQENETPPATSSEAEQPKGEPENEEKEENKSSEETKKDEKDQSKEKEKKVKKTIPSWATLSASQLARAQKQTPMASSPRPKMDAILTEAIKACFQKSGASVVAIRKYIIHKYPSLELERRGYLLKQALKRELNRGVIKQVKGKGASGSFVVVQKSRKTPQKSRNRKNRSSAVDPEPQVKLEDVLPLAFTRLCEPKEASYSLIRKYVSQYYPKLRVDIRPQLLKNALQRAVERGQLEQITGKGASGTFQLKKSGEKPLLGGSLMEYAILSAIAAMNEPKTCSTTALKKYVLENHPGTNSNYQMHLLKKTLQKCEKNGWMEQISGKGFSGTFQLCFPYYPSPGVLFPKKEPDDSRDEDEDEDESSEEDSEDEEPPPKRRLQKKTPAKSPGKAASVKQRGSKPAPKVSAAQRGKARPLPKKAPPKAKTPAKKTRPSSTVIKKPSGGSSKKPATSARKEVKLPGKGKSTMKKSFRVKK
UniProt Q9P2D0: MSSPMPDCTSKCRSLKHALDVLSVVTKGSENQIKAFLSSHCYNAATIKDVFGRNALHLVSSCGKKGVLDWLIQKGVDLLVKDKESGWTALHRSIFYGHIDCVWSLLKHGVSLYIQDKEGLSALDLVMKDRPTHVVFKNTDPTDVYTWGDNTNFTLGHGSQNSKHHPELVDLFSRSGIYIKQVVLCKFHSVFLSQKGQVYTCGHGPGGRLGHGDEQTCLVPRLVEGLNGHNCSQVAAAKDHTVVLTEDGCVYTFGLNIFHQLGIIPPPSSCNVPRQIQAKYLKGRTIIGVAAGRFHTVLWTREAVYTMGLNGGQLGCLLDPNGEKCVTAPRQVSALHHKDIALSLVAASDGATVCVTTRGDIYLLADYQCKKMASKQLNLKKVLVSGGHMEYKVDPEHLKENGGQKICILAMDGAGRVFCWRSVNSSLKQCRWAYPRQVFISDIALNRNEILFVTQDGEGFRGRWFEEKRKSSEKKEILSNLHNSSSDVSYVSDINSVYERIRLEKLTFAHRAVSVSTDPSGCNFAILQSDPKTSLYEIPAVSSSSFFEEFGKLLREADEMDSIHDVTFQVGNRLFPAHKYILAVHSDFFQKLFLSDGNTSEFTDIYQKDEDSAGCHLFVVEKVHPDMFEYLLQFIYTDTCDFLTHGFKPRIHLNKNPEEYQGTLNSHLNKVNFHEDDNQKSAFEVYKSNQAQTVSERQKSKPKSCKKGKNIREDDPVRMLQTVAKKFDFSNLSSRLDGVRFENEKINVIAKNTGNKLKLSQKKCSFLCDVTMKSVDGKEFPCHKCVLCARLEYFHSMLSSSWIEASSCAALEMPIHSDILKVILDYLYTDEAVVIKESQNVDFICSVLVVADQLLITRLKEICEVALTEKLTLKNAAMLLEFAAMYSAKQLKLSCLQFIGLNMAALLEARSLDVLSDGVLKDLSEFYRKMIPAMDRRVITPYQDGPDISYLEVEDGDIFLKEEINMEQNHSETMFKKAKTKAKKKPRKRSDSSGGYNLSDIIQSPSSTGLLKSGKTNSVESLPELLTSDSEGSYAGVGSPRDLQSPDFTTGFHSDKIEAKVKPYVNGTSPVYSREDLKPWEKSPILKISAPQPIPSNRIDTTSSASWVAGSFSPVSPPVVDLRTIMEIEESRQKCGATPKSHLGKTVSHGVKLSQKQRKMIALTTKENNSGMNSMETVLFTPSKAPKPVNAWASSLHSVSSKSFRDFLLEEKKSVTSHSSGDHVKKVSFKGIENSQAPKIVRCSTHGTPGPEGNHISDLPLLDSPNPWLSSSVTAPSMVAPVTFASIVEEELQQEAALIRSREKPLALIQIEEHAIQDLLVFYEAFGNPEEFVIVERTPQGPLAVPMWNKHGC

The other results are listed elsewhere or left out.

Compound in the first assay: Cn1cc(-c2ccc3c(c2)CCN3C(=O)Cc2cccc(C(F)(F)F)c2)c2c(N)ncnc21
Briefly: log2 fold change, soluble protein after heating vs DMSO (PISA); higher = thermal stabilisation; K562 cells, 10 uM, 30 min; active = over 0.2 and 3.5 SD of the protein, either way, in both replicates (recomputed). In short, it runs like this:
(§1)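 Values are thermal stability changes relative to control samples and are taken from duplicates. They are stated as log2 fold changes. Before quantification by TMTpro 16plex LC-MS/MS with equalised channel sums, K562 cells at 2×10^6 cells/mL were treated with 10 μM compound for 30 min, heated in aliquots for 3 min across 48°C-58°C, pooled, extracted in PBS with 0.5% NP-40 at 4°C, and centrifuged at 21,000xg for 90 min to give the soluble supernatant.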
Consider HNRNPH1 (UniProt P31943), for which the log2 fold change was inactive: 0.022.

For HIP1 (UniProt O00291), the log2 fold change is inactive: -0.009.

For HINT1 (UniProt P49773), the log2 fold change is inactive: 0.059.

In the case of HSPBP1 isoform 3 (UniProt Q9NZL4), the log2 fold change is inactive: -0.014.

As for HYOU1 (UniProt Q9Y4L1), the log2 fold change is inactive: -0.043.

In the case of HTATIP2 isoform 3 (UniProt Q9BUP3), the log2 fold change is inactive: 0.031.

Regarding HK2 (UniProt P52789), the log2 fold change was inactive: 0.022.

In the case of HSPA1A (UniProt P0DMV8), the log2 fold change is inactive: -0.018.

Consider HMCN1 (UniProt Q96RW7), for which the log2 fold change is inactive: 0.233.

Compound in a further assay: Cn1cc(-c2ccc3nnc(C(F)(F)c4ccc5ncccc5c4)n3n2)cn1
The description is as above. In short, it runs like this:
as §1
HSPH1 (UniProt Q92598): the log2 fold change is inactive: -0.024.

On to HSPA8 (UniProt E9PK54), for which the log2 fold change was inactive: 0.062.

Turning to HNRNPK isoform 2 (UniProt P61978), the log2 fold change is inactive: 0.017.

As to HMGN5 (UniProt P82970), the log2 fold change was inactive: -0.004.

As for HIST2H2BF isoform 2 (UniProt Q5QNW6), the log2 fold change was inactive: -0.098.

On to HSP90AB1 (UniProt P08238), for which the log2 fold change is inactive: 0.011.

Consider HTRA2 (UniProt O43464), for which the log2 fold change is inactive: 0.027.

For the target HSPB11 (UniProt Q9Y547), the log2 fold change was inactive: -0.094.

As to HNRNPH3 (UniProt P31942), the log2 fold change is inactive: -0.136.

As to HMGB1 (UniProt P09429), the log2 fold change is inactive: -0.046.

On to HMGCL (UniProt P35914), for which the log2 fold change was inactive: -0.002.

As for HMGB3 (UniProt O15347), the log2 fold change is inactive: -0.084.

Turning to HMGN1 (UniProt P05114), the log2 fold change is inactive: -0.048.

HTATSF1 (UniProt O43719): the log2 fold change is inactive: 0.082.

HSP90B1 (UniProt P14625): the log2 fold change is inactive: 0.018.

HP1BP3 (UniProt Q5SSJ5): the log2 fold change is inactive: -0.087.

As to IBTK (UniProt Q9P2D0), the log2 fold change is inactive: -0.068.

Turning to HOOK3 (UniProt Q86VS8), the log2 fold change was inactive: -0.027.

On to HNRNPM (UniProt P52272), for which the log2 fold change is inactive: -0.122.

For HIRIP3 (UniProt Q9BW71), the log2 fold change was inactive: 0.012.

For HUS1 (UniProt O60921), the log2 fold change is inactive: -0.02.

On to IDE (UniProt P14735), for which the log2 fold change is inactive: -0.045.

With HNRNPUL1 (UniProt Q9BUJ2), the log2 fold change was inactive: -0.007.

For the target HNRNPH1 (UniProt P31943), the log2 fold change was inactive: 0.055.

For the target HIP1 (UniProt O00291), the log2 fold change was inactive: -0.002.

HINT1 (UniProt P49773): the log2 fold change was inactive: 0.188.

In the case of HSPBP1 isoform 3 (UniProt Q9NZL4), the log2 fold change was inactive: -0.032.

With HYOU1 (UniProt Q9Y4L1), the log2 fold change was inactive: -0.025.

As to HTATIP2 isoform 3 (UniProt Q9BUP3), the log2 fold change is inactive: 0.067.

With HK2 (UniProt P52789), the log2 fold change was inactive: 0.01.

For HSPA1A (UniProt P0DMV8), the log2 fold change is inactive: -0.025.

Regarding HMCN1 (UniProt Q96RW7), the log2 fold change is inactive: -0.259.
